Library screen at single concentrations

Mtb cholesterol medium: 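Whole-cell growth test on Mycobacterium tuberculosis, read after 4 days in a medium based on cholesterol and the lipid DPPC; the read-out is not stated. Compounds at 50 µM. Direction is inferred from retests: higher values go with more growth inhibition. Size under these conditions: about 69,000 compounds, about 370 of them at 50% or above in at least one test.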
Mtb glucose medium: 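Growth of Mycobacterium tuberculosis over 3 days (7H9 medium with glucose and tyloxapol); the read-out is not stated. Concentration: 50 µM. Direction is inferred from retests: higher values go with more growth inhibition. About 69,000 compounds were tested under these conditions; 1.1% (about 760) showed 50% or more at least once.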

Results are given as percent effect.
The record does not define 0% and 100%; most values in the screen are far below 50% and negative numbers occur (in some assays of this library far below -100).
This is an unselected part of the compounds tested.
Two or more numbers in one place are separate tests of the same structure; such repeats can differ widely.

* COc1ccc(C2CCN(CCCC#N)CC2)cc1 : Mtb cholesterol medium: -14.11%; Mtb glucose medium: -8.483% and -19.7%
* Cc1cc(N2CCCC(c3[nH]ncc3Cc3ccccc3)C2)nc(N)n1 (stereo not drawn) : Mtb cholesterol medium: 23.07% and 9.879%; Mtb glucose medium: 56.2%
* [H][C@@]12COC[C@]1(COCC(=O)N1CCCC1)CN(S(C)(=O)=O)C2 : Mtb cholesterol medium: 0.4383%; Mtb glucose medium: -4.811%
* CCCc1cc(C(=O)N2CCC3(CCCN(CCOC)C3=O)C2)cs1 (stereo not drawn) : Mtb cholesterol medium: -2.836%; Mtb glucose medium: -13.08% and 9.274%
* CC(CNC(=O)c1ccc(C#N)cc1)N1CCc2ccccc21 (stereo not drawn) : Mtb cholesterol medium: 21.48%; Mtb glucose medium: 47.14%
* O=C(Cn1cccn1)Nc1ccc(N2CCCCC2)cc1 : Mtb cholesterol medium: -11.85%; Mtb glucose medium: -14.98%
* COc1ccc(NCc2nc(=O)n(CCC(C)C)[nH]2)cc1 : Mtb cholesterol medium: 33.01%; Mtb glucose medium: 14.52% and 34.46%
* CN(Cc1ccsc1)C(=O)c1ccc2c(c1)NC(=O)CO2 : Mtb cholesterol medium: 3.604%; Mtb glucose medium: -2.367%
* COc1ccc([C@@H]2C[C@H](NC(C)=O)C[C@H](Cc3ccccc3)O2)cn1 : Mtb cholesterol medium: 28.38% and 53.09%; Mtb glucose medium: 37.97%
* O=C1CCC2(CCCN(c3ncnc4[nH]cnc34)C2)CN1CCCO (stereo not drawn) : Mtb cholesterol medium: -8.312%; Mtb glucose medium: -1.349%
* Cc1nccc(N2CCC(=O)N(Cc3ccc(F)cc3)C(C(C)C)C2)n1 (stereo not drawn) : Mtb cholesterol medium: 1.111%; Mtb glucose medium: -7.119% and -5.353%
* Nc1nccc(C2CCCN2CCc2ccccc2)n1 (stereo not drawn) : Mtb cholesterol medium: 4.018%; Mtb glucose medium: 27.2%
* COCC1CN(c2ccc(Cl)cc2C#N)CCO1 (stereo not drawn) : Mtb cholesterol medium: 9.183%; Mtb glucose medium: 24.34% and 5.236%
* O=C1CC(N(C(=O)c2ccc(F)c(F)c2)C2CC2)C(=O)N1 (stereo not drawn) : Mtb cholesterol medium: -9.348%; Mtb glucose medium: -13.07%
* CC(C)CN1CC(c2nc(-c3ccsc3)c[nH]2)CC1=O (stereo not drawn) : Mtb cholesterol medium: -4.333%; Mtb glucose medium: 10.01%
* Cc1nn(C)c2cnn(Cc3ccc(C(=O)N4CCCCC4)o3)c12 : Mtb cholesterol medium: 12.64%; Mtb glucose medium: -2.948%
* O=C(O)C(F)(F)F.[H][C@@]12C[C@@H](c3nc(C)no3)O[C@]1([H])CN(CC1CCOCC1)C2 : Mtb cholesterol medium: -24.7%; Mtb glucose medium: -44.26% and 2.997%
* Cc1nc(CN2CCCC2Cn2ccnc2C(C)C)nc2ccccc12 (stereo not drawn) : Mtb cholesterol medium: 1.17%; Mtb glucose medium: 33.27% and 23.79%
* CN(C)c1nc2n(c(=O)n1)CCN2C(=O)Nc1ccc(Cl)c(Cl)c1 : Mtb cholesterol medium: -12.32%; Mtb glucose medium: 4.531%
* COCC(=O)NCCCn1nc2ccccn2c1=O : Mtb cholesterol medium: 2.606%; Mtb glucose medium: 9.638%
* CN(C)C(=O)CN1CCC(c2c(C(N)=O)sc3ncccc23)C1 (stereo not drawn) : Mtb cholesterol medium: -12.63% and -13.06%; Mtb glucose medium: -13.16%
* CN(CCCc1cnn(C)c1)c1nccc(-c2cc(C(=O)O)ccn2)n1 : Mtb cholesterol medium: -26.63%; Mtb glucose medium: 8.08% and -1.927%
* COC[C@@H]1CCC[C@@]12CN(Cc1ccco1)CCO2.O=C(O)C(F)(F)F : Mtb cholesterol medium: -2.077%; Mtb glucose medium: 20.78%
* CS(=O)(=O)CCNCc1ccc(OCc2ccccn2)cc1 : Mtb cholesterol medium: -39.55%; Mtb glucose medium: -32.55%
* CCc1cc(C(=O)NCC2CCN(Cc3cccc(C#N)c3)C2)on1 (stereo not drawn) : Mtb cholesterol medium: 21.83%; Mtb glucose medium: 8.721%
* O=C(NCCCN1CCCCC1)c1ccc(-n2ccc3ccccc32)s1 : Mtb cholesterol medium: 64.09%; Mtb glucose medium: 80.06%
* CN1CCCC1c1cncc(C(=O)NCCN2CCCC2)n1 (stereo not drawn) : Mtb cholesterol medium: -9.527%; Mtb glucose medium: -2.607%
* CCN(CC1CCOC1)C(=O)Nc1ccc(N2CCCCC2)nc1 (stereo not drawn) : Mtb cholesterol medium: -23.7%; Mtb glucose medium: -0.6425%
* COc1cc(CO)ccc1OCc1nc(C(C)C)no1 : Mtb cholesterol medium: 16.43% and 2.785%; Mtb glucose medium: 12.03%
* O=C(NCC(F)F)c1cc(-c2ccccc2)nc2ncnn12 : Mtb cholesterol medium: -9.937%; Mtb glucose medium: 7.504%
* O=C(O)C(F)(F)F.O=C(O)C(F)(F)F.O=C1COC2(COCCN(Cc3cccnc3)C2)CN1c1ccccc1 (stereo not drawn) : Mtb cholesterol medium: 8.576% and -5.695%; Mtb glucose medium: 0.9947% and -3.696%
* CCC[C@]12CN3C[C@](C)(CN(C1)C3c1[nH]c(=O)[nH]c(=O)c1C)C2=O (stereo partly drawn) : Mtb cholesterol medium: -7.417%; Mtb glucose medium: -3.401%
* COCCn1ccnc1CN1CCc2[nH]cnc2C1c1ccccn1 (stereo not drawn) : Mtb cholesterol medium: 7.097%; Mtb glucose medium: 9.153%
* CCN1CCC(CNC(=O)C(c2ccc(F)cc2)N(C)C)(N(C)C)CC1 (stereo not drawn) : Mtb cholesterol medium: 11.59%; Mtb glucose medium: -1.435%
* [H][C@]12CCN(S(=O)(=O)Cc3ccccc3)[C@@]1([H])CC[C@@H](COC)O2 : Mtb cholesterol medium: -20.05%; Mtb glucose medium: 8.984%
* O=C(NCC1CC1)C1=NOC2(CCN(Cc3ccc4c(c3)OCO4)C2)C1 (stereo not drawn) : Mtb cholesterol medium: 11.38%; Mtb glucose medium: -15.13%
* CC(NC(=O)N(C)Cc1ccc(Cl)s1)c1ccccn1 (stereo not drawn) : Mtb cholesterol medium: -30.12%; Mtb glucose medium: 4.713%
* Cc1nc(CCNC(=O)NC2CCCN(c3ncccn3)C2)cs1 (stereo not drawn) : Mtb cholesterol medium: -4.424%; Mtb glucose medium: 4.476%
* CCCN(CC)c1cc(C2CCNCC2)nc(C)n1 : Mtb cholesterol medium: -4.798%; Mtb glucose medium: 6.601%
* CC(CNC(=O)C1(c2ccc(F)cc2)CC1)CN1CCCC1=O (stereo not drawn) : Mtb cholesterol medium: 5.893%; Mtb glucose medium: -12.27%
* Cc1ccc(C)c(-n2cc(CN3CCOCC3)c(-c3ccccc3)n2)c1 : Mtb cholesterol medium: 10.78% and 11.44%; Mtb glucose medium: 6.312%
* Cc1ccc(CN(C(=O)NCC(c2cccs2)N(C)C)C2CC2)o1 (stereo not drawn) : Mtb cholesterol medium: 7.889%; Mtb glucose medium: 13.98%
* Cn1cc(CN2CCn3cnc(COCC4CC4)c3C2)cn1.O=C(O)C(F)(F)F : Mtb cholesterol medium: -43.46%; Mtb glucose medium: -55.2% and -8.508%
* CCN(CC)C(=O)c1ccn(COc2ccccc2)n1 : Mtb cholesterol medium: 3.785%; Mtb glucose medium: 14.75%

The first 3 entries again:

structure	Mtb cholesterol medium	Mtb glucose medium
COc1ccc(C2CCN(CCCC#N)CC2)cc1	-14.11	-8.483 and -19.7
Cc1cc(N2CCCC(c3[nH]ncc3Cc3ccccc3)C2)nc(N)n1 (stereo not drawn)	23.07 and 9.879	56.2
[H][C@@]12COC[C@]1(COCC(=O)N1CCCC1)CN(S(C)(=O)=O)C2	0.4383	-4.811

The values are deposited in ChEMBL (CHEMBL3988442, “University of Dundee, Small-Polar-MMV Screening Library” (2021)).